Results deposited as PubChem BioAssay AID504764 (Drosophila RNAi Screening Center, 2011).
The deposit covers about 22,000 reagents; this is an unselected part of those that have a named target and a result. Over the whole deposit, 403 (1.9%) are marked active. 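Unnormalised raw counts per well; ratio z-scores behind the hit calls and whether each hit raises or lowers signal are not deposited.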 Names joined by + are all predicted targets of the reagent. Reagent sequences are not shown. Not stated in the record: the amount of reagent.

Assay: 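Genome-wide screen for regulators of Notch-driven gene expression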 (primary screen)
System: Drosophila Kc167 cells
Reagent: long dsRNA against Drosophila genes
Duration: about 5 days (4 days dsRNA, then 24 h after transfection)
Treatment: transfection of constitutively active membrane-tethered Notch lacking the extracellular domain, read 24 h later
Measured: 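Firefly luciferase from an E(spl)m3 reporter with active Notch, plus control-promoter and uninduced reporter wells for normalisation; unnormalised counts, duplicate wells a and b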
Reading the numbers: induced reporter light, run 1, well a and induced reporter light, run 1, well b: higher = more light from the Notch target reporter with active Notch; control promoter light, run 1, well a and control promoter light, run 1, well b: higher = more light from the viral control promoter (cell number, transfection, viability); uninduced reporter light, run 1, well a: higher = more light from the Notch target reporter without active Notch
Active means: 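Hit if the duplicate-averaged log2 ratio of induced to control-promoter light gives a plate-wise z beyond ±2, or induced to uninduced beyond ±1.8; weak-control or discordant-duplicate wells dropped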
Meaning of the calls: active = modifier hit (raised or lowered Notch signal); inactive = not a hit

| gene | DRSC id | induced reporter light, run 1, well a | induced reporter light, run 1, well b | control promoter light, run 1, well a | control promoter light, run 1, well b | uninduced reporter light, run 1, well a | Outcome |
| --- | --- | --- | --- | --- | --- | --- | --- |
| tbrd-2 (GeneID 37207) | DRSC07020 | 93165 | 97945 | 95285 | 99670 | 7795 | inactive |
| Sobp (GeneID 36260) | DRSC07312 | 1.08e5 | 1.20e5 | 1.08e5 | 87690 | 11075 | inactive |
| mRpL28 (GeneID 33715) | DRSC02724 | 1.17e5 | 1.03e5 | 99760 | 1.03e5 | 7765 | inactive |
| mthl2 (GeneID 38636) | DRSC10287 | 1.98e5 | 1.85e5 | 3.58e5 | 2.23e5 | 12990 | inactive |
| CG12520 (GeneID 39466) | DRSC09892 | 1.24e5 | 1.40e5 | 2.45e5 | 1.67e5 | 7940 | inactive |
| Dp (GeneID 36461) | DRSC07402 | 78715 | 71375 | 86500 | 90305 | 6625 | inactive |
| CG15125 (GeneID 37258) | DRSC06547 | 33115 | 30495 | 36150 | 38305 | 4880 | inactive |
| mei-38 (GeneID 31104) | DRSC18564 | 1.07e5 | 1.09e5 | 1.68e5 | 2.30e5 | 7510 | inactive |
| CG5355 (GeneID 34421) | DRSC02844 | 2.03e5 | 2.31e5 | 1.74e5 | 2.05e5 | 19900 | inactive |
| CG33689 (GeneID 3771798) | DRSC09424 | 1.50e5 | 1.37e5 | 2.37e5 | 2.75e5 | 15160 | inactive |
| Su(var)2-HP2 (GeneID 36621) | DRSC06204 | 1.59e5 | 1.54e5 | 1.51e5 | 1.77e5 | 12178 | inactive |
| CG12164 (GeneID 35651) | DRSC06115 | 1.66e5 | 1.84e5 | 1.67e5 | 2.02e5 | 14575 | inactive |
| Nlg4 (GeneID 42402) | DRSC15108 | 1.23e5 | 1.45e5 | 1.50e5 | 1.51e5 | 9510 | inactive |
| Nlg4 (GeneID 42402) | DRSC15109 | 1.77e5 | 1.61e5 | 1.93e5 | 2.27e5 | 12400 | inactive |
| Nlg4 (GeneID 42402) | DRSC15700 | 1.61e5 | 1.36e5 | 1.80e5 | 1.78e5 | 11160 | inactive |
| Nlg4 (GeneID 42402) | DRSC15701 | 11585 | 12570 | 11955 | 9880 | 2865 | inactive |
| Nlg4 (GeneID 42402) | DRSC22243 | – | – | – | – | – | active |
| Ak3 (GeneID 41318) | DRSC16075 | 79120 | 71330 | 89555 | 69960 | 6985 | inactive |
| Dhc1 (GeneID 41171) | DRSC16503 | 1.02e5 | 99985 | 87215 | 72680 | 5375 | inactive |
| CG30416 (GeneID 246603) | DRSC04565 | 1.84e5 | 1.48e5 | 1.30e5 | 1.43e5 | 10388 | inactive |
| elfless (GeneID 35076) | DRSC02451 | 1.14e5 | 1.47e5 | 1.32e5 | 1.27e5 | 10445 | inactive |
| CG9945 (GeneID 37329) | DRSC07347 | 1.93e5 | 1.55e5 | 1.83e5 | 1.68e5 | 13355 | inactive |
| RpL31 (GeneID 35988) | DRSC06716 | 54330 | 71495 | 88380 | 74040 | 3870 | inactive |
| ZnT33D (GeneID 326167) | DRSC02591 | 1.54e5 | 1.69e5 | 1.54e5 | 1.75e5 | 12205 | inactive |
| Orp8 (GeneID 42412) | DRSC15110 | 1.88e5 | 2.00e5 | 2.00e5 | 1.64e5 | 14895 | inactive |
| Orp8 (GeneID 42412) | DRSC15712 | 1.33e5 | 1.41e5 | 1.96e5 | 1.95e5 | 10070 | inactive |
| ScsbetaG (GeneID 44001) | DRSC11294 | 2.53e5 | 2.49e5 | 2.01e5 | 2.65e5 | 15010 | inactive |
| janA (GeneID 43569) | DRSC16972 | 1.19e5 | 1.38e5 | 1.74e5 | 1.71e5 | 9405 | inactive |
| CG17196 (GeneID 43112) | DRSC15189 | 1.74e5 | 1.64e5 | 2.33e5 | 2.36e5 | 17335 | inactive |
| CG8155 (GeneID 36698) | DRSC07084 | 1.23e5 | 1.33e5 | 2.02e5 | 2.38e5 | 9130 | inactive |
| Prosbeta1 (GeneID 46058) | DRSC07159 | 30345 | 26895 | 38150 | 38965 | 2360 | inactive |
| CG17325 + CG42305 | DRSC02602 | 43030 | 33805 | 41710 | 34090 | 3375 | inactive |
| CG11076 (GeneID 43830) | DRSC17197 | 1.12e5 | 1.27e5 | 1.91e5 | 1.72e5 | 9285 | inactive |

Reformatted: 7 of the entries above
{"gene":"CG12520 (GeneID 39466)","DRSC id":"DRSC09892","induced reporter light, run 1, well a":1.24e5,"induced reporter light, run 1, well b":1.40e5,"control promoter light, run 1, well a":2.45e5,"control promoter light, run 1, well b":1.67e5,"uninduced reporter light, run 1, well a":7940,"Outcome":"inactive"}
{"gene":"Dp (GeneID 36461)","DRSC id":"DRSC07402","induced reporter light, run 1, well a":78715,"induced reporter light, run 1, well b":71375,"control promoter light, run 1, well a":86500,"control promoter light, run 1, well b":90305,"uninduced reporter light, run 1, well a":6625,"Outcome":"inactive"}
{"gene":"CG15125 (GeneID 37258)","DRSC id":"DRSC06547","induced reporter light, run 1, well a":33115,"induced reporter light, run 1, well b":30495,"control promoter light, run 1, well a":36150,"control promoter light, run 1, well b":38305,"uninduced reporter light, run 1, well a":4880,"Outcome":"inactive"}
{"gene":"mei-38 (GeneID 31104)","DRSC id":"DRSC18564","induced reporter light, run 1, well a":1.07e5,"induced reporter light, run 1, well b":1.09e5,"control promoter light, run 1, well a":1.68e5,"control promoter light, run 1, well b":2.30e5,"uninduced reporter light, run 1, well a":7510,"Outcome":"inactive"}
{"gene":"CG5355 (GeneID 34421)","DRSC id":"DRSC02844","induced reporter light, run 1, well a":2.03e5,"induced reporter light, run 1, well b":2.31e5,"control promoter light, run 1, well a":1.74e5,"control promoter light, run 1, well b":2.05e5,"uninduced reporter light, run 1, well a":19900,"Outcome":"inactive"}
{"gene":"CG33689 (GeneID 3771798)","DRSC id":"DRSC09424","induced reporter light, run 1, well a":1.50e5,"induced reporter light, run 1, well b":1.37e5,"control promoter light, run 1, well a":2.37e5,"control promoter light, run 1, well b":2.75e5,"uninduced reporter light, run 1, well a":15160,"Outcome":"inactive"}
{"gene":"Su(var)2-HP2 (GeneID 36621)","DRSC id":"DRSC06204","induced reporter light, run 1, well a":1.59e5,"induced reporter light, run 1, well b":1.54e5,"control promoter light, run 1, well a":1.51e5,"control promoter light, run 1, well b":1.77e5,"uninduced reporter light, run 1, well a":12178,"Outcome":"inactive"}

Continued.
| gene | DRSC id | induced reporter light, run 1, well a | induced reporter light, run 1, well b | control promoter light, run 1, well a | control promoter light, run 1, well b | uninduced reporter light, run 1, well a | Outcome |
| --- | --- | --- | --- | --- | --- | --- | --- |
| snoRNA:U31:54Ec + snoRNA:snR38:54Eb + snoRNA:U27:54Eb + 8 more | DRSC06458 | 49500 | 28385 | 40075 | 44535 | 4388 | inactive |
| EMC2B + EMC2A | DRSC15241 | 2.45e5 | 2.23e5 | 2.36e5 | 2.40e5 | 17500 | inactive |
| CG6785 (GeneID 34620) | DRSC02993 | 1.91e5 | 1.81e5 | 1.05e5 | 1.34e5 | 13950 | inactive |
| NaCP60E (GeneID 37981) | DRSC04307 | 2.54e5 | 2.19e5 | 2.00e5 | 1.87e5 | 17560 | inactive |
| CG15153 (GeneID 35080) | DRSC02454 | 90845 | 1.09e5 | 1.49e5 | 1.59e5 | 8785 | active |
| CG5645 (GeneID 39382) | DRSC10532 | 2.30e5 | 1.75e5 | 1.75e5 | 1.11e5 | 19220 | inactive |
| CG1632 (GeneID 31763) | DRSC17558 | 87110 | 74525 | 74045 | 71685 | 4990 | inactive |
| CG1632 (GeneID 31763) | DRSC18110 | 1.73e5 | 1.28e5 | 2.42e5 | 3.10e5 | 12010 | inactive |
| CG8191 (GeneID 32511) | DRSC20091 | 77560 | 85330 | 88740 | 76225 | 11965 | inactive |
| LanA (GeneID 38723) | DRSC11207 | 1.24e5 | 1.16e5 | 58150 | 13940 | 9810 | active |
| CG13066 (GeneID 50270) | DRSC09949 | 1.56e5 | 1.36e5 | 2.45e5 | 2.25e5 | 6985 | inactive |
| Or24a (GeneID 33623) | DRSC00768 | 1.82e5 | 1.73e5 | 2.50e5 | 2.67e5 | 12132 | inactive |
| CG14829 (GeneID 38792) | DRSC10199 | 3.44e5 | 2.61e5 | 4.18e5 | 2.68e5 | 19300 | inactive |
| tsr (GeneID 37841) | DRSC04718 | 1.56e5 | 1.61e5 | 1.21e5 | 1.14e5 | 11370 | inactive |
| PIG-L (GeneID 42388) | DRSC15577 | 2.32e5 | 1.85e5 | 2.10e5 | 2.21e5 | 14665 | inactive |
| Zw10 (GeneID 47874) | DRSC18793 | 1.68e5 | 1.75e5 | 2.23e5 | 2.27e5 | 10870 | inactive |
| gfzf (GeneID 40858) | DRSC12506 | 90495 | 1.52e5 | 87400 | 92215 | 11690 | inactive |
